Experimental data as given in PMC8329197, “Compounds targeting OSBPL7 increase ABCA1-dependent cholesterol efflux preserving kidney function in two models of kidney disease” (Nature Communications, 2021).

Experiments:
OSBPL7 = assay: Competition with ^3H-Cpd K UV cross-linking to FLAG-tagged OSBPL7 in HEK293 cells (immunoprecipitation, autoradiography); design: concentration or dose not given beside the values; details: single experiments (3 per compound)
human THP1 macrophages = assay: apoAI-mediated (ABCA1) cholesterol efflux from cholesterol-loaded THP1 macrophages; assay type: cell-based; details: single experiments (3 per compound)

## O=C(N[C@@H]1CCCC[C@H]1O)c1cnc(OCC(F)(F)F)c(-c2ccc(Cl)cc2)c1 [Cpd J]
OSBPL7
  OSBP7 percentage of inhibition: 21%, 63%, 37%

## O=C(Nc1cnc(OCC(F)(F)F)c(-c2ccc(Cl)cc2)c1)c1cccnc1 [Cpd M]
Human THP1 macrophages
  ABCA1 percentage of induction: 196%, 56%, 86%

Certain results were filed several times, with different values. Only these are listed. There may be further records. The values listed for one entry do not match, cause unknown; they may come from other doses, times, organisms or constructs than stated.
